Source: paper PMC4744930
These are yes or no findings as the source states them, for the method shown. In cells and extracts the contact can be indirect. Binding can be weak; no strength is given.

T1: VZV glycoprotein B (varicella-zoster virus, vaccine Oka strain (v-Oka)) (UniProt Q4JR05)
T1 sequence: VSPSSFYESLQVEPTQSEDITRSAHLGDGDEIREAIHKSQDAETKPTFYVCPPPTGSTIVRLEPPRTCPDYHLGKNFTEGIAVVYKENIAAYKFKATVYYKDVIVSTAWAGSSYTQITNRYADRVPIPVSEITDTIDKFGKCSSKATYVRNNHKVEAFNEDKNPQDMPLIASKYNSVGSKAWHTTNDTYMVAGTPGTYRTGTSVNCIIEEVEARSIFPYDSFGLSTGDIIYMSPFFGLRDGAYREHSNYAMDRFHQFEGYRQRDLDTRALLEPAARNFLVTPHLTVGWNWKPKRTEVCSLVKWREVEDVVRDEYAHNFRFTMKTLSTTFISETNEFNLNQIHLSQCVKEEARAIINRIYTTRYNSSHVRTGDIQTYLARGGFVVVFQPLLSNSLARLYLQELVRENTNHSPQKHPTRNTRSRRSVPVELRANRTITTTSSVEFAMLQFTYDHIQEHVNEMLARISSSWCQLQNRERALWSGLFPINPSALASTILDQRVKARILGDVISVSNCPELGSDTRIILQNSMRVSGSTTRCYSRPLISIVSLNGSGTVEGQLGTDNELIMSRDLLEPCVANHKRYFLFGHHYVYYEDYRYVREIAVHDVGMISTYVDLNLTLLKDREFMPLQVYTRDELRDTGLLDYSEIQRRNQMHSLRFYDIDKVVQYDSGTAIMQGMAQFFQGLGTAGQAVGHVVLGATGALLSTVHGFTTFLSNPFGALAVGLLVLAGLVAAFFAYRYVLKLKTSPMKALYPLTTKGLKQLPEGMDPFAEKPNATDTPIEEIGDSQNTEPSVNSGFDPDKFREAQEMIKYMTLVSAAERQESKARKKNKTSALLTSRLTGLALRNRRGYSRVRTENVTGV

B1: VZV glycoprotein B (protein, UniProt Q4JR05 72-931)
chain: T1 sequence

Key:
[1] = molecular target: T1, VZV glycoprotein B (varicella-zoster virus, vaccine Oka strain (v-Oka)); assay: co-IP; v-Oka-infected ARPE-19 cells in 1% Triton X-100 lysis buffer, lysate precleared with protein A beads; incubated overnight with mAb and protein A beads at 4 °C; washed with PBST (0.05% Tween 20 in PBS); Western blot; uninfected cell lysate as control; ORF9 precipitated with mAb 8H6 and blotted for gE, gB, gC, and the reverse (gE, gB, gC precipitated with mAbs 4A2, 4C8, 2D1 and blotted with 8H6)
[2] = molecular target: VZV ORF9, membrane-associated tegument protein (varicella-zoster virus, vaccine Oka strain (v-Oka)); assay: as above

Row | Molecule | binding [1] | binding [2]
1 | VZV ORF9, membrane-associated tegument protein | binds | 
2 | B1 |  | binds
